Source: PubChem BioAssay AID248 (DTP/NCI, 2004)
The list does not hold the whole screen: it gathers tests that were run many times, whatever their T/C, doses with no T/C, and many T/C values between a quarter and a half above the control. Further doses and runs are listed elsewhere. T/C: endpoint of the treated group in % of that of the vehicle group. Some entries give survivors of the animals treated and no T/C: the source files T/C as zero there, which appears to mark a toxic dose or a test without result, not a measured value. Some doses without a T/C left all or most animals alive at the check, yet need not have been tolerated: survival well below the control is almost never listed, so the zero probably covers shortened survival too. Counts of survivors are from the toxicity check (mostly the fifth day) where no day follows; animals may have died later. Schedule codes are those of the source, read here as Q, the interval in days (D) or hours (H), X, the number of doses. Some schedule codes hold Z or #, which are not explained here. For survival time, the PubChem record calls one and a half times the control and up active, and a quarter to a half above the control has no call in these data; cut-offs in other NCI protocols can differ. Some entries were tested several times; the values are given in rising order. Some T/C values are followed by the survivors on the day toxicity was checked, most often the fifth; where none is given, no animal had died by that day.

Test system: L1210 leukemia ip in BDF1 mice, survival T/C
Experiment: NCI In Vivo Anticancer Drug Screen. Data for tumor model L1210 Leukemia (intraperitoneal) in B6D2F1 (BDF1) mice
Conditions: T/C endpoint: mean survival time, higher T/C = longer survival

O=c1[nH]cc(N(CCCl)CCCl)c(=O)[nH]1
T/C (dose: 0.15 mg/kg/injection, schedule: Q03DX006 (ip), vehicle: carboxymethylcellulose (CMC)): 131 % of control | T/C (dose: 0.19 mg/kg/injection, schedule: Q#A X Z (ip), vehicle: carboxymethylcellulose (CMC)): 125 % of control | T/C (dose: 0.25 mg/kg/injection, schedule: Q01DX001 (ip), vehicle: carboxymethylcellulose (CMC)): 127 % of control | T/C (dose: 0.3 mg/kg/injection, schedule: Q01DX Z (ip), vehicle: carboxymethylcellulose (CMC)): 125 % of control | T/C (dose: 0.3 mg/kg/injection, schedule: Q03DX006 (ip), vehicle: carboxymethylcellulose (CMC)): 125 % of control | T/C (dose: 0.37 mg/kg/injection, schedule: Q#A X Z (ip), vehicle: carboxymethylcellulose (CMC)): 132 % of control | survivor count (dose: 0.38 mg/kg/injection, schedule: Q01DX Z (ip), vehicle: carboxymethylcellulose (CMC)): 6 of 6 | T/C (dose: 0.6 mg/kg/injection, schedule: Q01DX Z (ip), vehicle: carboxymethylcellulose (CMC)): 145 % of control | T/C (dose: 0.6 mg/kg/injection, schedule: Q03DX006 (ip), vehicle: carboxymethylcellulose (CMC)): 130 % of control | T/C (dose: 0.63 mg/kg/injection, schedule: Q07DX003 (ip), vehicle: carboxymethylcellulose (CMC)): 133 % of control | T/C (dose: 0.67 mg/kg/injection, schedule: Q01DX Z (ip), vehicle: carboxymethylcellulose (CMC)): 137 % of control | T/C (dose: 0.75 mg/kg/injection, schedule: Q#A X Z (ip), vehicle: carboxymethylcellulose (CMC)): 135 % of control | T/C (dose: 0.83 mg/kg/injection, schedule: Q01DX Z (ip), vehicle: carboxymethylcellulose (CMC)): 148 % of control | T/C (dose: 1.0 mg/kg/injection, schedule: Q01DX001 (ip), vehicle: carboxymethylcellulose (CMC)): 136 % of control | T/C (dose: 1.1 mg/kg/injection, schedule: Q03DX006 (ip), vehicle: carboxymethylcellulose (CMC)): 135 % of control | T/C (dose: 1.12 mg/kg/injection, schedule: Q01DX Z (ip), vehicle: carboxymethylcellulose (CMC)): 134 % of control | T/C (dose: 1.5 mg/kg/injection, schedule: Q01DX001 (ip), vehicle: carboxymethylcellulose (CMC)): 141 % of control | T/C (dose: 1.5 mg/kg/injection, schedule: Q01DX Z (im), vehicle: carboxymethylcellulose (CMC)): 125 % of control | T/C (dose: 1.5 mg/kg/injection, schedule: Q01DX Z (ip), vehicle: carboxymethylcellulose (CMC)): 141 % of control | T/C (dose: 1.5 mg/kg/injection, schedule: Q01DX Z (ip), vehicle: saline): 145 % of control [6 of 7 alive] | T/C (dose: 1.5 mg/kg/injection, schedule: Q01DX Z (sc), vehicle: carboxymethylcellulose (CMC)): 143 % of control | T/C (dose: 1.5 mg/kg/injection, schedule: Q#A X Z (ip), vehicle: carboxymethylcellulose (CMC)): 127 % of control | T/C (dose: 1.67 mg/kg/injection, schedule: Q01DX Z (ip), vehicle: carboxymethylcellulose (CMC)): 144 % of control | T/C (dose: 1.8 mg/kg/injection, schedule: Q01DX Z (ip), vehicle: saline): 129 and 144 % of control | T/C (dose: 2.0 mg/kg/injection, schedule: Q01DX001 (ip), vehicle: carboxymethylcellulose (CMC)): 125 % of control | T/C (dose: 2.4 mg/kg/injection, schedule: Q01DX001 (ip), vehicle: carboxymethylcellulose (CMC)): 147 % of control | T/C (dose: 2.4 mg/kg/injection, schedule: Q01DX001 (ip), vehicle: gum acacia): 139 % of control | T/C (dose: 2.5 mg/kg/injection, schedule: Q01DX Z (ip), vehicle: saline): 126 and 137 % of control | T/C (dose: 3.0 mg/kg/injection, schedule: Q01DX006 (iv), vehicle: carboxymethylcellulose (CMC)): 137 % of control | T/C (dose: 3.0 mg/kg/injection, schedule: Q01DX Z (im), vehicle: carboxymethylcellulose (CMC)): 125 and 139 % of control | T/C (dose: 3.0 mg/kg/injection, schedule: Q01DX Z (oral), vehicle: carboxymethylcellulose (CMC)): 139 % of control | T/C (dose: 3.0 mg/kg/injection, schedule: Q01DX Z (sc), vehicle: carboxymethylcellulose (CMC)): 135 and 141 % of control | T/C (dose: 3.0 mg/kg/injection, schedule: Q#A X Z (ip), vehicle: carboxymethylcellulose (CMC)): 127 % of control | T/C (dose: 3.6 mg/kg/injection, schedule: Q01DX001 (ip), vehicle: gum acacia): 142 % of control | T/C (dose: 3.7 mg/kg/injection, schedule: Q01DX Z (ip), vehicle: alkali diluted with saline): 130 % of control | survivor count (dose: 3.7 mg/kg/injection, schedule: Q01DX Z (ip), vehicle: saline): 4 of 6 | T/C (dose: 5.0 mg/kg/injection, schedule: Q01DX001 (ip), vehicle: carboxymethylcellulose (CMC)): 141 % of control | survivor count (dose: 5.0 mg/kg/injection, schedule: Q07DX003 (ip), vehicle: carboxymethylcellulose (CMC)): 0 of 6 | survivor count (dose: 5.5 mg/kg/injection, schedule: Q01DX Z (ip), vehicle: saline): 6 of 6 | survivor count (dose: 6.0 mg/kg/injection, schedule: Q01DX006 (iv), vehicle: carboxymethylcellulose (CMC)): 3 of 6 | survivor count (dose: 6.0 mg/kg/injection, schedule: Q01DX Z (ip), vehicle: carboxymethylcellulose (CMC)): 6 of 6 | survivor count (dose: 6.0 mg/kg/injection, schedule: Q01DX Z (ip), vehicle: saline): 7 of 7 | survivor count (dose: 9.0 mg/kg/injection, schedule: Q03DX006 (ip), vehicle: carboxymethylcellulose (CMC)): 0 of 6 | survivor count (dose: 10.0 mg/kg/injection, schedule: Q07DX003 (ip), vehicle: carboxymethylcellulose (CMC)): 3 of 6 | survivor count (dose: 12.0 mg/kg/injection, schedule: Q01DX Z (im), vehicle: carboxymethylcellulose (CMC)): 6 of 6 | survivor count (dose: 12.0 mg/kg/injection, schedule: Q01DX Z (ip), vehicle: carboxymethylcellulose (CMC)): 4 of 6 | survivor count (dose: 12.0 mg/kg/injection, schedule: Q01DX Z (oral), vehicle: carboxymethylcellulose (CMC)): 4 of 6 | survivor count (dose: 12.0 mg/kg/injection, schedule: Q01DX Z (sc), vehicle: carboxymethylcellulose (CMC)): 5 of 6 | survivor count (dose: 12.0 mg/kg/injection, schedule: Q#A X Z (ip), vehicle: carboxymethylcellulose (CMC)): 6 of 6 | survivor count (dose: 20.0 mg/kg/injection, schedule: Q01DX001 (ip), vehicle: carboxymethylcellulose (CMC)): 3 of 6 | survivor count (dose: 21.0 mg/kg/injection, schedule: Q07DX003 (ip), vehicle: carboxymethylcellulose (CMC)): 0 of 6 | T/C (dose: 66.0 micrograms/kg/injection, schedule: Q01DX Z (ip), vehicle: saline): 138 % of control

O=[N+]([O-])c1ccc(S)c(Cl)c1
survivor count (dose: 50.0 mg/kg/injection, schedule: Q01DX009 (ip), vehicle: Klucel (hydroxypropylcellulose) (HPC)): 0 of 6 | survivor count (dose: 100.0 mg/kg/injection, schedule: Q01DX009 (ip), vehicle: Klucel (hydroxypropylcellulose) (HPC)): 1 of 6 | survivor count (dose: 200.0 mg/kg/injection, schedule: Q01DX009 (ip), vehicle: Klucel (hydroxypropylcellulose) (HPC)): 0 of 6 | survivor count (dose: 400.0 mg/kg/injection, schedule: Q01DX009 (ip), vehicle: Klucel (hydroxypropylcellulose) (HPC)): 0 of 6

O=CNNC(=O)c1cccc([N+](=O)[O-])c1
survivor count (dose: 400.0 mg/kg/injection, schedule: Q04DX003 (ip), vehicle: other): 2 of 6

CC1C(c2ccccc2)OCCN1C (stereo not drawn)
survivor count (dose: 400.0 mg/kg/injection, schedule: Q01DX001 (ip), vehicle: saline): 2 of 4
